Experimental data as given in paper PMC2637979.
Results are given in words; binding and its absence hold for the method and conditions named. In cells and extracts the contact can be indirect. These calls come from enrichment with a bait or labelling near it, and not all partners need be listed.

Chains of the proteins cited; added tags and fusions are not shown.
UniProt P19525: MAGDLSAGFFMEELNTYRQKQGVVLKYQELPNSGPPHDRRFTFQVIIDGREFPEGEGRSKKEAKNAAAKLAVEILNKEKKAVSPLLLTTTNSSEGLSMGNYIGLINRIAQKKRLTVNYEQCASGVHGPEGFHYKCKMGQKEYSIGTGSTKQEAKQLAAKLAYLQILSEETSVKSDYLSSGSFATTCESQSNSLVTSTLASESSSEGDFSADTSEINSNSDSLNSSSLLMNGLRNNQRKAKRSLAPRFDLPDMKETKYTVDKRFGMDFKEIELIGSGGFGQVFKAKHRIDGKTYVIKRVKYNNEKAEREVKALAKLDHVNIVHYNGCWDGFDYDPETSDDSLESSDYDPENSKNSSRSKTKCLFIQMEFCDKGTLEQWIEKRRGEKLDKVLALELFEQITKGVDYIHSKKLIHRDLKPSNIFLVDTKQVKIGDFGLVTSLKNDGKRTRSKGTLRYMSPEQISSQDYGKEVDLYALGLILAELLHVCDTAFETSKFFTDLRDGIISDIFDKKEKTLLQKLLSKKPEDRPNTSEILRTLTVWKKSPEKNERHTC
UniProt O70133: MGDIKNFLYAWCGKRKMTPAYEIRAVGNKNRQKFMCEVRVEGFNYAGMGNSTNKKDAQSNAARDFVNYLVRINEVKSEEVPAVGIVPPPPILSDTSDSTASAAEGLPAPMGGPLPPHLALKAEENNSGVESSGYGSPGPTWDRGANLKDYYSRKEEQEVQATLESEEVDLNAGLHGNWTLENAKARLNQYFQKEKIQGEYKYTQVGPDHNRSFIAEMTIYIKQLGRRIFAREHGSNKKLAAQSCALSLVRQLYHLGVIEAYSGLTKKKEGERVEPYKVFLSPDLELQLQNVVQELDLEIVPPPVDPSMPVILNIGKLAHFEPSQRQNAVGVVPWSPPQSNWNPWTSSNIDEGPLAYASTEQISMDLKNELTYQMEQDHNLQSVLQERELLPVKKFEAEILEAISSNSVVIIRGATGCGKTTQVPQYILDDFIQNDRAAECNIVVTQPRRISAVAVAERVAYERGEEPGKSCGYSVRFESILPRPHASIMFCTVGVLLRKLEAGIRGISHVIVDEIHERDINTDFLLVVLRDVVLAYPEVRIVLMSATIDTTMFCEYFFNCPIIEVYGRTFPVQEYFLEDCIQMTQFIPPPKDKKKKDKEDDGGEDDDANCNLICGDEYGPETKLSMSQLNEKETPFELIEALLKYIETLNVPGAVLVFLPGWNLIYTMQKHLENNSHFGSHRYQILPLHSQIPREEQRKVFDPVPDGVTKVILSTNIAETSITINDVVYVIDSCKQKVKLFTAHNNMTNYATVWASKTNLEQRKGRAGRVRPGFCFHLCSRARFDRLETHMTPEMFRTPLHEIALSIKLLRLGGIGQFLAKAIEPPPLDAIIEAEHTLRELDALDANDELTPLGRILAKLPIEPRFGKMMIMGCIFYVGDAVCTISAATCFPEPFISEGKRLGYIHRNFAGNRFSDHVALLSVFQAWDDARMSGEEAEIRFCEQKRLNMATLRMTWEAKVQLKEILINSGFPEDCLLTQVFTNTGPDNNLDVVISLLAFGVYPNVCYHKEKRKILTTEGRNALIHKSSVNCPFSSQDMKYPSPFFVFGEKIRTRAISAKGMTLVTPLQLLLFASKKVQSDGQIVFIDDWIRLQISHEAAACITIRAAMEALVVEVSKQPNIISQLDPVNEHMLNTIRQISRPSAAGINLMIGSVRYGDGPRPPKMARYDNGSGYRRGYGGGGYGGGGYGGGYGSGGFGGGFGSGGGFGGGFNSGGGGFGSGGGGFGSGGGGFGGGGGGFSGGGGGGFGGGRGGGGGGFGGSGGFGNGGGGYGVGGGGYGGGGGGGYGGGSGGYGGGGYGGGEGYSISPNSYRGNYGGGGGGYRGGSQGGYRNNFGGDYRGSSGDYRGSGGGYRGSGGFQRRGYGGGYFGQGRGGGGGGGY

Target: human PKR (double-stranded RNA-activated protein kinase R) expressed in pkr-null MEFs (human) (UniProt P19525)
Assay: affinity purification with mass spectrometry; immunoprecipitation with mouse monoclonal anti-PKR from pkr-null MEFs expressing human PKR, stimulated with pIC; silver-stained 140 kDa band analysed by mass spectrometry

For “murine RNA helicase A (RHA), endogenous in MEFs (from UniProt O70133 1-1380) (enzyme)”, the binding was “binds”.
